Test results published in article PMC4152224.

Target: T1, Vascular endothelial cadherin (human (endogenous in CRL-2922)) (UniProt P33151)
T1 sequence: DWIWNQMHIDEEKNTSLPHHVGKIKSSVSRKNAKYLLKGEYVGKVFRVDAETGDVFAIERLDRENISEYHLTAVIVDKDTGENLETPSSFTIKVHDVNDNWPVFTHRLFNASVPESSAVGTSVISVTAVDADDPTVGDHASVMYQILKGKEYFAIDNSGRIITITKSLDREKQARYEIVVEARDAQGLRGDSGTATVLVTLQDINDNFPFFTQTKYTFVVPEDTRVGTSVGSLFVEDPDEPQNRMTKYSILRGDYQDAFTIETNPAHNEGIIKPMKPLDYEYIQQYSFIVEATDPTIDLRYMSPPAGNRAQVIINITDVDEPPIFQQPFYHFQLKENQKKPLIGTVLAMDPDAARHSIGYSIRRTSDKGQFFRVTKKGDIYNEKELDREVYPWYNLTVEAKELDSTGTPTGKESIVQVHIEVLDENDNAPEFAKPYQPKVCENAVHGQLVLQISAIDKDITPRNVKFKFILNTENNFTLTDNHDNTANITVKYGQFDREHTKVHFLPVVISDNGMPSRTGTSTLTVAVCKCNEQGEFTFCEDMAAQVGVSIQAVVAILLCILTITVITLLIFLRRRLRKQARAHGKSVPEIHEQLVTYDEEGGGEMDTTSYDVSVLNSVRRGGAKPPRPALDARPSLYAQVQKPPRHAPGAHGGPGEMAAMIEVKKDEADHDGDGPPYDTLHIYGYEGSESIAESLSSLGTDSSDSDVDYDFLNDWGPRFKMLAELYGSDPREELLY
Test: co-IP; total protein of CRL-2922 cells after LPS (10 µg/mL, 1 h to 4 h), with or without CPZ, clathrin siRNA, filipin, Cav-1 siRNA, SU6656, CLI-095, Cyt D or Jasp; primary antibody overnight at 4°C, protein G-agarose 24 h, washed 4 times with radioimmunoprecipitation assay buffer, SDS-PAGE and blot, densitometry ratio

Substance: Clathrin (human (endogenous in CRL-2922))
- binding: binds

Results are given in words; binding and its absence hold for the method and conditions named. In cells and extracts the contact can be indirect. Binding can be weak; no strength is given.
